In the supplement of paper PMC11732987, “Enantioselective OTUD7B fragment discovery through chemoproteomics screening and high-throughput optimisation” (Communications Chemistry, 2025):
This is one part of the list. The data scatter; read single values as rough.

Chains of the proteins cited; added tags and fusions are not shown. Lines headed by an entry give the natural chain unless they say otherwise; changes in a name come on top. Residues count along the entry.
UniProt Q9Y6E2: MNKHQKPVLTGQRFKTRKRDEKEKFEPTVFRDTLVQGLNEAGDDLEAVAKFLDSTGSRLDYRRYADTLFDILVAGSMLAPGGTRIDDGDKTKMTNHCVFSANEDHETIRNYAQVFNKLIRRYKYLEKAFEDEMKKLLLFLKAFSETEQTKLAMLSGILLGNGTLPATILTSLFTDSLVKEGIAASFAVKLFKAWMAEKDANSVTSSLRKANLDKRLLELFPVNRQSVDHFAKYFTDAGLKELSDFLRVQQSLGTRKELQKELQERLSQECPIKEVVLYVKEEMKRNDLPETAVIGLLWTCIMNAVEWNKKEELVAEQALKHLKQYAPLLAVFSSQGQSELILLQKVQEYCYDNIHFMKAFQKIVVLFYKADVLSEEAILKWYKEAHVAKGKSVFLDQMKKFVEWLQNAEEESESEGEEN
UniProt P38398, 224-251: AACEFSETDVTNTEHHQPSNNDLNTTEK
UniProt P55211: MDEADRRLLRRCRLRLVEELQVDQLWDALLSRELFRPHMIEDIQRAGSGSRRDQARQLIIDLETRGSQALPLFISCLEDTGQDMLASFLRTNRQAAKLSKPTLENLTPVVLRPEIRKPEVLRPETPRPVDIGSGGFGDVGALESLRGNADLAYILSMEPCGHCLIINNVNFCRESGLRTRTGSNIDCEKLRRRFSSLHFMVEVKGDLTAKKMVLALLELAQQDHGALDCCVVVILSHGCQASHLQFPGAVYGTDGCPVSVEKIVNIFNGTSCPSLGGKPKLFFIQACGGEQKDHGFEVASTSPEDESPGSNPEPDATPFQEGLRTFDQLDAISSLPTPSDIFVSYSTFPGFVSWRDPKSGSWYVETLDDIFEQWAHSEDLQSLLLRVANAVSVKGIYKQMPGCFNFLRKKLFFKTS
UniProt Q6UWU4: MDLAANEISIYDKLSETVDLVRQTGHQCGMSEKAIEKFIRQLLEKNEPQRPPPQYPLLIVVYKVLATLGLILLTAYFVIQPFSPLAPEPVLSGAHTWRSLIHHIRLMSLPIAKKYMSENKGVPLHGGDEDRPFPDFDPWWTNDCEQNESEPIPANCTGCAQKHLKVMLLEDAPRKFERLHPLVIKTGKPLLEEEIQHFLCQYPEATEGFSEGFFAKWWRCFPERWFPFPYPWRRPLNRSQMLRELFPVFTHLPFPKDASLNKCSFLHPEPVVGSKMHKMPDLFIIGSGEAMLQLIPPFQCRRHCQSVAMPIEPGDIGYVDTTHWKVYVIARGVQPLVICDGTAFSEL
UniProt Q9Y6J0: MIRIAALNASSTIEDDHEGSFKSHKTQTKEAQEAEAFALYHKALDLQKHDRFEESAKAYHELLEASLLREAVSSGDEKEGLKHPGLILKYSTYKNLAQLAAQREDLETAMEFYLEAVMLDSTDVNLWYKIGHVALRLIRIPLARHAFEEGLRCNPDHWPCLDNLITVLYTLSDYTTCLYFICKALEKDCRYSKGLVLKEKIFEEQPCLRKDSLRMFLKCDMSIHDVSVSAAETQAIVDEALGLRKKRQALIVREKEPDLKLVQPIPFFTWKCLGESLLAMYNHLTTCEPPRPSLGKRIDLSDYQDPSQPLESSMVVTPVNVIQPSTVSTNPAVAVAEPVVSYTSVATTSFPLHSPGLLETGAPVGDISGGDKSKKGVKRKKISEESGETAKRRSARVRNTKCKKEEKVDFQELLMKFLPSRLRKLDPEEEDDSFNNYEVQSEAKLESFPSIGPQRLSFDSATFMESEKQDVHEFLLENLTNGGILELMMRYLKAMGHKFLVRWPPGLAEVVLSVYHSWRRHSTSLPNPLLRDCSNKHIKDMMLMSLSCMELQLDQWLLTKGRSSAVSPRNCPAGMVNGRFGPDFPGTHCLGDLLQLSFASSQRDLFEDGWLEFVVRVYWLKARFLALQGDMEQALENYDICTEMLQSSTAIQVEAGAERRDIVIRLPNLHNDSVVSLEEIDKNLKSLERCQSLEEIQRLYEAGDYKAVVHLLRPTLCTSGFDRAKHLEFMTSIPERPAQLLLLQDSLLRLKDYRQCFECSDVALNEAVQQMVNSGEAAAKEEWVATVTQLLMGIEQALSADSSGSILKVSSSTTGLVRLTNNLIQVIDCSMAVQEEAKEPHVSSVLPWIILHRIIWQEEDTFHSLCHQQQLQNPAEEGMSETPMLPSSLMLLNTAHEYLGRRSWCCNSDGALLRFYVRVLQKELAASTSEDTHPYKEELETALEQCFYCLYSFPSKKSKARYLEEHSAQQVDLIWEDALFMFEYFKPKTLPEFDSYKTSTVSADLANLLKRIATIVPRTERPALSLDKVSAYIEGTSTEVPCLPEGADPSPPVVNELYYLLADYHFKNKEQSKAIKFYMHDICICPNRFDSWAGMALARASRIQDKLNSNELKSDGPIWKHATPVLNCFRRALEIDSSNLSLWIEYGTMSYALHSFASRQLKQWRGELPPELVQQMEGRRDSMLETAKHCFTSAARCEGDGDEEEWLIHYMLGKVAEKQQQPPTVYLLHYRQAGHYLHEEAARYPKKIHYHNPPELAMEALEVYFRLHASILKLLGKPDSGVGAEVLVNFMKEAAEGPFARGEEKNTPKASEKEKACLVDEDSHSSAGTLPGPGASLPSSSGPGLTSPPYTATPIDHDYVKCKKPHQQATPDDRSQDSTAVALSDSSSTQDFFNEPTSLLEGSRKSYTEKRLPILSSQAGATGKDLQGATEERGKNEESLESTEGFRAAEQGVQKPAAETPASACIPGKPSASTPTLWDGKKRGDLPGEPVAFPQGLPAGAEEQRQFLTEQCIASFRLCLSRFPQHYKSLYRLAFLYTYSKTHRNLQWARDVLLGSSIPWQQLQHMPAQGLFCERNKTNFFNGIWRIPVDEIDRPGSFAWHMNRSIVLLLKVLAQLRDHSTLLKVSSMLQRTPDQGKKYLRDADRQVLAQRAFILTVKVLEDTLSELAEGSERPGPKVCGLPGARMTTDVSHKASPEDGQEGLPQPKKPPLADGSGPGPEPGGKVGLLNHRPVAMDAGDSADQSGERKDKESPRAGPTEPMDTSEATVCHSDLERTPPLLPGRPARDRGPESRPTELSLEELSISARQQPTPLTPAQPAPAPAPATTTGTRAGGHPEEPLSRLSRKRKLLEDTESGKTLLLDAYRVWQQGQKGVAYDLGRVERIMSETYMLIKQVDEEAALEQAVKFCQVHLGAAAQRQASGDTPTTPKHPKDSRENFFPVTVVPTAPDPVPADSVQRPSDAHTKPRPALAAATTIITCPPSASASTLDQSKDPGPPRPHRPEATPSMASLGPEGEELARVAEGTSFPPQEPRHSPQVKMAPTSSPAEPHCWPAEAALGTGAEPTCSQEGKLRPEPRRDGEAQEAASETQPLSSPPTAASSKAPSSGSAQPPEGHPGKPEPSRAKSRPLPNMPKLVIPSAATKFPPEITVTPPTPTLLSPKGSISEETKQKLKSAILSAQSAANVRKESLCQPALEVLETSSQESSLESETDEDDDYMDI
UniProt Q8NFC6: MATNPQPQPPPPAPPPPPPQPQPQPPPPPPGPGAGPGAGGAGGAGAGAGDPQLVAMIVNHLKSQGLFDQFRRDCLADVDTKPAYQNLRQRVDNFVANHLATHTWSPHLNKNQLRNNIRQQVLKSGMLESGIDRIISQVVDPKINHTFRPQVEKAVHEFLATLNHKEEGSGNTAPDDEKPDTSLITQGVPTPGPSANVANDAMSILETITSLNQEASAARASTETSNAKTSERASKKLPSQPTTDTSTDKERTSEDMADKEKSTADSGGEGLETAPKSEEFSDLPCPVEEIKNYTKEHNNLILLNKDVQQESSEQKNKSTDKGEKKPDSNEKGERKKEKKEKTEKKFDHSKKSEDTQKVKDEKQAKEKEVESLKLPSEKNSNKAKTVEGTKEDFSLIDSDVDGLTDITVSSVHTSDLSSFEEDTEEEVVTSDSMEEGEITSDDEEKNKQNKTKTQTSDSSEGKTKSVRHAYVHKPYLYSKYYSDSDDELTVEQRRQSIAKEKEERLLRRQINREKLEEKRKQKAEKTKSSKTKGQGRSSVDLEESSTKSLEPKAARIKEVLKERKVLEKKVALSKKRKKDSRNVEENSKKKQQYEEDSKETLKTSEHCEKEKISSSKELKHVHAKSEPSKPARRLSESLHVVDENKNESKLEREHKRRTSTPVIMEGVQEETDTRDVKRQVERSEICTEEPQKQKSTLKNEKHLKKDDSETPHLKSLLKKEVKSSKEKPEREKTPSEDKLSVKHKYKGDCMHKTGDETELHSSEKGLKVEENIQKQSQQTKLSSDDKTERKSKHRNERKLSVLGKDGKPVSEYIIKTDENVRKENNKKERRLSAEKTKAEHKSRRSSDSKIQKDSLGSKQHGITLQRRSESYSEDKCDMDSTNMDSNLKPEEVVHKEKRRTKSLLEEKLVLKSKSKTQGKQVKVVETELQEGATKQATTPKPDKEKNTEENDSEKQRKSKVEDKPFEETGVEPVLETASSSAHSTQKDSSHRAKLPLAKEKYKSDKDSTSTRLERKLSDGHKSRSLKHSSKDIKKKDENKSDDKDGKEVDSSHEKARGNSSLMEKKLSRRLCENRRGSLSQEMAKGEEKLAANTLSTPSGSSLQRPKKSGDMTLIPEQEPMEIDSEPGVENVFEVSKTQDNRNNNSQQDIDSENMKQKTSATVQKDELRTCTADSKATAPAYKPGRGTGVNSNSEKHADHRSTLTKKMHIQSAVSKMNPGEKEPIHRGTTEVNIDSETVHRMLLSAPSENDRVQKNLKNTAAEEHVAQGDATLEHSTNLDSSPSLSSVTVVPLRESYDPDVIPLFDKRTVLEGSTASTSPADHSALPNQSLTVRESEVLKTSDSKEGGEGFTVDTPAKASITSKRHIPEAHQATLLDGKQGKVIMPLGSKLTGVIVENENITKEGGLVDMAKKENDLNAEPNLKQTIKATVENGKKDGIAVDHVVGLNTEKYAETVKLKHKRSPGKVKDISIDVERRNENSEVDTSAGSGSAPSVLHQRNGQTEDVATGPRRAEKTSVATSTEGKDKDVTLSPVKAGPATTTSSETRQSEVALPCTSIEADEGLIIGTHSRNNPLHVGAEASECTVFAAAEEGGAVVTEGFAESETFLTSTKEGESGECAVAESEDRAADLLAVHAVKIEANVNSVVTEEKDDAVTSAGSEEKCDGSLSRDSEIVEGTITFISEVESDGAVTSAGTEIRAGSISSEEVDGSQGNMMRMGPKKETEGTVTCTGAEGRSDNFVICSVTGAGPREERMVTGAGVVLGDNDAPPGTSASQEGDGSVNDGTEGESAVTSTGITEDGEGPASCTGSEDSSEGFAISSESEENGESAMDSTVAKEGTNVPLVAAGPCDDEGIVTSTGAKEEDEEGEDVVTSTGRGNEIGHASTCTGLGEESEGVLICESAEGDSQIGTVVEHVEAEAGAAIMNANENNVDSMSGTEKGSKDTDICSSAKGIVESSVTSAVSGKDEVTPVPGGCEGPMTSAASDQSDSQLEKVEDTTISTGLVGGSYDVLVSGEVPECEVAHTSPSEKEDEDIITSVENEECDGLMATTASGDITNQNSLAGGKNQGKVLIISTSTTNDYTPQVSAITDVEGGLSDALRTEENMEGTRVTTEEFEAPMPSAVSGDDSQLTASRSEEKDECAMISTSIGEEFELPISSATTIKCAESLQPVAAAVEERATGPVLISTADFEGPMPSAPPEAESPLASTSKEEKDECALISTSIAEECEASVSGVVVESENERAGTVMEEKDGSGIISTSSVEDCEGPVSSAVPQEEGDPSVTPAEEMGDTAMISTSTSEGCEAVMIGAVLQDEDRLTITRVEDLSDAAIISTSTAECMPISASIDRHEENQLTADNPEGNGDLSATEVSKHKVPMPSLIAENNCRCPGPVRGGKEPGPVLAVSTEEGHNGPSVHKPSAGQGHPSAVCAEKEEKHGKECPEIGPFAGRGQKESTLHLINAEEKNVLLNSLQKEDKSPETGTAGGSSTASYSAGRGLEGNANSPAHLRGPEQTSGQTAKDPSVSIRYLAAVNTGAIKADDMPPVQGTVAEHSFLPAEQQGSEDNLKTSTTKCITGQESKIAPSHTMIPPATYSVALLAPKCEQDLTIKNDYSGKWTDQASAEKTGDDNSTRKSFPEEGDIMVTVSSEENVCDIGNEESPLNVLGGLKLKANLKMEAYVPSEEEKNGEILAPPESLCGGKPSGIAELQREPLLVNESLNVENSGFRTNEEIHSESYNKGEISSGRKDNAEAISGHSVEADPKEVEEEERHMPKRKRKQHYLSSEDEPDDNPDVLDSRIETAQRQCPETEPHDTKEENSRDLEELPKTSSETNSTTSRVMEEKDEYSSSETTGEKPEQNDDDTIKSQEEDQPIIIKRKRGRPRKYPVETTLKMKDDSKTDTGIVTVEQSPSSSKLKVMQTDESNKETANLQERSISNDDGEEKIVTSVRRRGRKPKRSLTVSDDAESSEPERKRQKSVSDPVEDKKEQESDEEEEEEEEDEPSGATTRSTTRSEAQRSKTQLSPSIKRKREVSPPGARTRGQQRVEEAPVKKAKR

Legend:
[1] = compound: ClCC(=O)N[C@@H]1CCCc2ccccc12; assay: log2 mean competition ratio of IA-DTB cysteine labelling (DMSO/compound) (log2 ratio); higher = stronger cysteine engagement by compound; conditions: treatment time: 4 h, cell line lysate: HEK293T
Procedure: (§1)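 IA-DTB competitive cysteine chemoproteomics in HEK293T RIPA lysate. Lysates were treated with compound 29 or 30 at 50 or 200 µM for 4 h, then IA-DTB (500 µM, 1 h), trypsin-digested, NeutrAvidin-enriched and analysed by diaPASEF. Competition ratio = intensity DMSO / intensity compound (n=4 treated, n=64 DMSO); binding: mean log2 CR ≥ 1 and p ≤ 0.05 plus QC filters. Target is the cysteine site.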

[2] = compound: ClCC(=O)N[C@H]1CCCc2ccccc12; assay: as above; conditions: treatment time: 4 h, cell line lysate: HEK293T
Procedure: as §1

BZW2 C350 (UniProt Q9Y6E2)
log2 mean competition ratio ([1]; 50 µM): 0.212
log2 mean competition ratio ([1]; 200 µM): -0.233
log2 mean competition ratio ([2]; 50 µM): -0.188
log2 mean competition ratio ([2]; 200 µM): -0.455

BRCA1 C348 (UniProt P38398)
log2 mean competition ratio ([1]; 50 µM): -0.0843
log2 mean competition ratio ([1]; 200 µM): 0.271
log2 mean competition ratio ([2]; 50 µM): -0.0188
log2 mean competition ratio ([2]; 200 µM): 0.299

CAND1 C1134
log2 mean competition ratio ([1]; 50 µM): 0.49
log2 mean competition ratio ([1]; 200 µM): -0.0703
log2 mean competition ratio ([2]; 50 µM): -0.096
log2 mean competition ratio ([2]; 200 µM): -0.113

BRCA2 C341 (UniProt P51587)
log2 mean competition ratio ([1]; 50 µM): 0.103
log2 mean competition ratio ([1]; 200 µM): 0.151
log2 mean competition ratio ([2]; 50 µM): -0.222
log2 mean competition ratio ([2]; 200 µM): 0.0383

CAMSAP1 C848 (UniProt Q5T5Y3)
log2 mean competition ratio ([1]; 50 µM): -0.241
log2 mean competition ratio ([1]; 200 µM): 0.132
log2 mean competition ratio ([2]; 50 µM): 0.217
log2 mean competition ratio ([2]; 200 µM): 0.185

C18orf21 C104 (UniProt Q32NC0)
log2 mean competition ratio ([1]; 50 µM): 0.144
log2 mean competition ratio ([1]; 200 µM): -0.363
log2 mean competition ratio ([2]; 50 µM): 0.732
log2 mean competition ratio ([2]; 200 µM): -0.288

CAMSAP1 C828 (UniProt Q5T5Y3)
log2 mean competition ratio ([1]; 50 µM): -0.0901
log2 mean competition ratio ([1]; 200 µM): 0.104
log2 mean competition ratio ([2]; 50 µM): -0.0435
log2 mean competition ratio ([2]; 200 µM): 0.31

C2CD5 C449 (UniProt Q86YS7)
log2 mean competition ratio ([1]; 50 µM): -0.222
log2 mean competition ratio ([1]; 200 µM): -0.00821
log2 mean competition ratio ([2]; 50 µM): 0.0933
log2 mean competition ratio ([2]; 200 µM): -0.0314

CAPN2 C374 (UniProt P17655)
log2 mean competition ratio ([1]; 50 µM): 0.0378
log2 mean competition ratio ([1]; 200 µM): 0.192
log2 mean competition ratio ([2]; 50 µM): 0.112
log2 mean competition ratio ([2]; 200 µM): 0.581

BRCA1 C226 (UniProt P38398)
log2 mean competition ratio ([1]; 50 µM): -0.192
log2 mean competition ratio ([1]; 200 µM): -0.0652
log2 mean competition ratio ([2]; 50 µM): 0.00944
log2 mean competition ratio ([2]; 200 µM): -0.157

CAMK2D C290 (UniProt Q13557)
log2 mean competition ratio ([1]; 50 µM): -0.139
log2 mean competition ratio ([1]; 200 µM): -0.426
log2 mean competition ratio ([2]; 50 µM): 0.282
log2 mean competition ratio ([2]; 200 µM): -0.164

CASP9 C187 (UniProt P55211)
log2 mean competition ratio ([1]; 50 µM): -0.143
log2 mean competition ratio ([1]; 200 µM): 0.0727
log2 mean competition ratio ([2]; 50 µM): -0.0739
log2 mean competition ratio ([2]; 200 µM): 0.00598

CAND1 C954
log2 mean competition ratio ([1]; 50 µM): 0.0342
log2 mean competition ratio ([1]; 200 µM): -0.205
log2 mean competition ratio ([2]; 50 µM): 0.574
log2 mean competition ratio ([2]; 200 µM): -0.0911

CASK C513 (UniProt O14936)
log2 mean competition ratio ([1]; 50 µM): 0.212
log2 mean competition ratio ([1]; 200 µM): -0.0896
log2 mean competition ratio ([2]; 50 µM): -0.288
log2 mean competition ratio ([2]; 200 µM): -0.287

C6orf89 C28 (UniProt Q6UWU4)
log2 mean competition ratio ([1]; 50 µM): -0.172
log2 mean competition ratio ([1]; 200 µM): 0.156
log2 mean competition ratio ([2]; 50 µM): -0.204
log2 mean competition ratio ([2]; 200 µM): -0.0349

BRF1 C430 (UniProt Q92994)
log2 mean competition ratio ([1]; 50 µM): -0.173
log2 mean competition ratio ([1]; 200 µM): -0.266
log2 mean competition ratio ([2]; 50 µM): -0.137
log2 mean competition ratio ([2]; 200 µM): -0.191

C2CD5 C258 (UniProt Q86YS7)
log2 mean competition ratio ([1]; 50 µM): -0.0442
log2 mean competition ratio ([1]; 200 µM): -0.135
log2 mean competition ratio ([2]; 50 µM): 0.0456
log2 mean competition ratio ([2]; 200 µM): -0.203

BRIX1 C107 (UniProt Q8TDN6)
log2 mean competition ratio ([1]; 50 µM): -0.743
log2 mean competition ratio ([1]; 200 µM): 0.0599
log2 mean competition ratio ([2]; 50 µM): -0.188
log2 mean competition ratio ([2]; 200 µM): 0.431

BRMS1L C127 (UniProt Q5PSV4)
log2 mean competition ratio ([1]; 50 µM): 0.215
log2 mean competition ratio ([1]; 200 µM): -0.0958
log2 mean competition ratio ([2]; 50 µM): -0.0641
log2 mean competition ratio ([2]; 200 µM): -0.0667

CABIN1 C207 (UniProt Q9Y6J0)
log2 mean competition ratio ([1]; 50 µM): 0.185
log2 mean competition ratio ([1]; 200 µM): 0.0977
log2 mean competition ratio ([2]; 50 µM): -0.0932
log2 mean competition ratio ([2]; 200 µM): 0.0887

BOD1L1 C686 (UniProt Q8NFC6)
log2 mean competition ratio ([1]; 50 µM): -0.132
log2 mean competition ratio ([1]; 200 µM): -0.152
log2 mean competition ratio ([2]; 50 µM): -0.142
log2 mean competition ratio ([2]; 200 µM): -0.0354

BRD7 C338 (UniProt Q9NPI1)
log2 mean competition ratio ([1]; 50 µM): 0.00668
log2 mean competition ratio ([1]; 200 µM): 0.0778
log2 mean competition ratio ([2]; 50 µM): 0.0448
log2 mean competition ratio ([2]; 200 µM): 0.147

CAD C1215
log2 mean competition ratio ([1]; 50 µM): -0.0658
log2 mean competition ratio ([1]; 200 µM): -0.136
log2 mean competition ratio ([2]; 50 µM): 0.175
log2 mean competition ratio ([2]; 200 µM): -0.13

C17orf80 C228 (UniProt Q9BSJ5)
log2 mean competition ratio ([1]; 50 µM): -0.0831
log2 mean competition ratio ([1]; 200 µM): 0.214
log2 mean competition ratio ([2]; 50 µM): -0.0847
log2 mean competition ratio ([2]; 200 µM): 0.13
